Assay results as given in patent publication US20120010178A1, “METHODS AND COMPOUNDS FOR TREATMENT OF NEURODEGENERATIVE DISORDERS” (PRESIDENT AND FELLOWS OF HARVARD COLLEGE, priority 2008, published 2012).
At least one compound was matched to its structure with a doubt left.

How the values were obtained:
SMN [1] = test: High-content fibroblast screen for compounds that modulate SMN level; conditions: human fibroblasts, 2-3 days with compound;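 note: Anti-SMN immunostaining with confocal imaging of nuclear and cytoplasmic SMN and gem counts, tested at 0.1, 1 and 10 uM, fold change relative to negative control wells on each plate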
SMN [2] = test: Inhibition of PDGF-stimulated SMN increase in fibroblasts by kinase/receptor inhibitors; assay type: cell-based, human; conditions: inhibitor at the concentration of the table row
Method: Fibroblasts from patients suffering from SMA were treated with PDGF at a concentration of 0, 0.3 ng/ml, 0.63 ng/ml, 1.25 ng/ml, 2.5 ng/ml, 5 ng/ml, 10 ng/ml or 20 ng/ml, in the absence or in the presence of 25 uM DMPQ or 25 uM AG-1296 respectively for 72 hours. The levels of both cytoplasmic and nuclear SMN were detected and quantified using the method described in Example 2.
(§1) Fibroblasts from patients suffering from SMA were either control treated or treated with PDGF at a concentration of 0, 0.63 ng/ml, 1.25 ng/ml, 2.5 ng/ml, 5 ng/ml, 10 ng/ml or 20 ng/ml, in the absence or in the presence of 50 uM LY294002 or 2 uM P1-103 respectively for 72 hours. The levels of both cytoplasmic and nuclear SMN were detected and quantified using the method described in Example 2.
as §1, with “of” for “of 50 uM LY294002 or”, “uM Papamycin” for “uM P1-103 respectively”, “Example x.” for “Example 2.”
A range of concentrations were tested in order not to miss the effects. SMN level were evaluated by Opera Evoteck in each cellular compartment and to assess the cell numbers that are summarized in the Table 3. […]

SMILES | SMN level in fibroblast screen (increase or decrease) (SMN [1]) | Cell Number (affected by inhibitor) (SMN [2])
COc1ccc(C(=O)O[C@H]2CC[C@@]3(C)[C@@H]4CC[C@H]5[C@]6(O)C[C@H](O)[C@@]7(O)[C@@H](CN8C[C@@H](C)CC[C@H]8[C@@]7(C)O)[C@]6(O)C[C@@]53O[C@]24O)cc1OC [Veratridine] | increase SMN | –
CC(=O)O[C@@H]1[C@@H](OC(C)=O)[C@@H](O)[C@H](Oc2c(-c3ccc(O)cc3)oc3cc(O)cc(O)c3c2=O)O[C@H]1C [SL-0101] | – | NO
